Patent USRE40198E1, “Method and device for electrochemical immunoassay of multiple analytes” (Roche Diagnostics Operations, Inc., priority 1998, dated 2008)

Test: Steady state current of mediator conjugates on IDA electrodes with bipotentiostatic control
Settings: 40 uM

O=C(CCCCC1SCC2NC(=O)NC21)NCCOCCOCCNC(=O)C1CCC(CNC(=O)[c-]2cccc2)CC1.[Fe+2].c1cc[cH-]c1 (stereo not shown) [Fc-Bi]
Ratio of response Warm/RT: 1.5
